The supplement of paper PMC11006884
The entries are a selection whose mix differs from that of the whole data set.

The chains behind the UniProt entries cited, without tags or fusion partners. Where a name states a change or a piece, a line headed by the entry shows the natural chain unless it says otherwise.
UniProt Q7Z5K2: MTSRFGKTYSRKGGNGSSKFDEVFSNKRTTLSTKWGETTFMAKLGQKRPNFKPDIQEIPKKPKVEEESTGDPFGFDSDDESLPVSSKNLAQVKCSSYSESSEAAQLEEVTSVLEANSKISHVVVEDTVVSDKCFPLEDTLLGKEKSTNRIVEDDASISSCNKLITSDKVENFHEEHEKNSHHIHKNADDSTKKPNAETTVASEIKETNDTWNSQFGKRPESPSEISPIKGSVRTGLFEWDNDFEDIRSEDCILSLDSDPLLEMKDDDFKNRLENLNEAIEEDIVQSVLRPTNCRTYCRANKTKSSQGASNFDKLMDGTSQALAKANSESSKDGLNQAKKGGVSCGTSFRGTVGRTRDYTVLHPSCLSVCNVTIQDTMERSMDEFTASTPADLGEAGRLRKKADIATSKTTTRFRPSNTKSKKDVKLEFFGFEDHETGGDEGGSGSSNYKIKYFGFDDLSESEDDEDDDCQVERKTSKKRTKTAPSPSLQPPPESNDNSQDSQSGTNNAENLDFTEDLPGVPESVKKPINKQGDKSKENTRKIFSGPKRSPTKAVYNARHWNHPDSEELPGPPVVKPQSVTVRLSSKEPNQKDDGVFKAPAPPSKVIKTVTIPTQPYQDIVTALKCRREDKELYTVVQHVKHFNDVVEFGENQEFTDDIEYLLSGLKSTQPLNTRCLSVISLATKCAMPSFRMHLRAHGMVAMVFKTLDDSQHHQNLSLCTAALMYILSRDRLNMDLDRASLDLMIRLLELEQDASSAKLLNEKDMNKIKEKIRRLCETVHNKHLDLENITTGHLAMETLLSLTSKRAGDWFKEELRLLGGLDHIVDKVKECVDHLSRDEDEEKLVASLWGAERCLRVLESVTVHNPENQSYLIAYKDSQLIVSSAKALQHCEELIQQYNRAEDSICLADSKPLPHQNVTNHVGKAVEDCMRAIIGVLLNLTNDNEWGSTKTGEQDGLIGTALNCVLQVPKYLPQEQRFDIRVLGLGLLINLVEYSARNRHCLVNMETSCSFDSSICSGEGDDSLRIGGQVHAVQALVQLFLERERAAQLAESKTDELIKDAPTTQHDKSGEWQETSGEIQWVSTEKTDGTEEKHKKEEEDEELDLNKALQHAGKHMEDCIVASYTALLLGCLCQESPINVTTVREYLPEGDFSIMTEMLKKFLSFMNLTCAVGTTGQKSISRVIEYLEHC
UniProt Q86UP2: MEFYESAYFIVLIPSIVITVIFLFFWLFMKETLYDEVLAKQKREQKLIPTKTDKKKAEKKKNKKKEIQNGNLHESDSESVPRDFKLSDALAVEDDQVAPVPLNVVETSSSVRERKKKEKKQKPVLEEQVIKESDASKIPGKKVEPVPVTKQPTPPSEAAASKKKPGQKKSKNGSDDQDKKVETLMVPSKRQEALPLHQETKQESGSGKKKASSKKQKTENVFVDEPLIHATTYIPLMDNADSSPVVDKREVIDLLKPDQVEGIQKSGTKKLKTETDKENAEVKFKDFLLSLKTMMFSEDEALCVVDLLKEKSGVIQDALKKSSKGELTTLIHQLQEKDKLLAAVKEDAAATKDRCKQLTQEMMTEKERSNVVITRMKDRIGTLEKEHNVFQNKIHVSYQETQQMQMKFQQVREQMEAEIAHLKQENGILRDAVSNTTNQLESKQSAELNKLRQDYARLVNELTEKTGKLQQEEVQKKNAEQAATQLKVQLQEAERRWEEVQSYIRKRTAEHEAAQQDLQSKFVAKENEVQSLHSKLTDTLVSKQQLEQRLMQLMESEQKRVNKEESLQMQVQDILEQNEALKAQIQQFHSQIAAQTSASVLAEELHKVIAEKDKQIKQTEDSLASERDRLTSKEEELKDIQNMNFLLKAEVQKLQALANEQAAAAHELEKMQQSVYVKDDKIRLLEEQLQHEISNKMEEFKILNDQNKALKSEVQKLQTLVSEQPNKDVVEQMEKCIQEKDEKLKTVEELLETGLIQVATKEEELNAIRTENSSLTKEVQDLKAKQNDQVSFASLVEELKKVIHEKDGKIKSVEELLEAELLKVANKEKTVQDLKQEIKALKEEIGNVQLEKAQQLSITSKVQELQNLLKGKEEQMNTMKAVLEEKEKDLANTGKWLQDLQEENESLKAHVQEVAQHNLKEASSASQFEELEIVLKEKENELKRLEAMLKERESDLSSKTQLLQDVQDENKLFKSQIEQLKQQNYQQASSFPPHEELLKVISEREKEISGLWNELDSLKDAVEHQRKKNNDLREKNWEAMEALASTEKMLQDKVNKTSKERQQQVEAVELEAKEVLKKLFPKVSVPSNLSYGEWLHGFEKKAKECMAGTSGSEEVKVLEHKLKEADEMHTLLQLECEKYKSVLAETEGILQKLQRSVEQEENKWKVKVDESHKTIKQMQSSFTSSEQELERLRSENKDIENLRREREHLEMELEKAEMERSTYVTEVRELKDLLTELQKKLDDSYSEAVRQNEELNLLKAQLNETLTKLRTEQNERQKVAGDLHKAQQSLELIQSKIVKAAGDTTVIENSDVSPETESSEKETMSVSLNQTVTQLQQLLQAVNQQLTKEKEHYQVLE
UniProt Q7L2E3: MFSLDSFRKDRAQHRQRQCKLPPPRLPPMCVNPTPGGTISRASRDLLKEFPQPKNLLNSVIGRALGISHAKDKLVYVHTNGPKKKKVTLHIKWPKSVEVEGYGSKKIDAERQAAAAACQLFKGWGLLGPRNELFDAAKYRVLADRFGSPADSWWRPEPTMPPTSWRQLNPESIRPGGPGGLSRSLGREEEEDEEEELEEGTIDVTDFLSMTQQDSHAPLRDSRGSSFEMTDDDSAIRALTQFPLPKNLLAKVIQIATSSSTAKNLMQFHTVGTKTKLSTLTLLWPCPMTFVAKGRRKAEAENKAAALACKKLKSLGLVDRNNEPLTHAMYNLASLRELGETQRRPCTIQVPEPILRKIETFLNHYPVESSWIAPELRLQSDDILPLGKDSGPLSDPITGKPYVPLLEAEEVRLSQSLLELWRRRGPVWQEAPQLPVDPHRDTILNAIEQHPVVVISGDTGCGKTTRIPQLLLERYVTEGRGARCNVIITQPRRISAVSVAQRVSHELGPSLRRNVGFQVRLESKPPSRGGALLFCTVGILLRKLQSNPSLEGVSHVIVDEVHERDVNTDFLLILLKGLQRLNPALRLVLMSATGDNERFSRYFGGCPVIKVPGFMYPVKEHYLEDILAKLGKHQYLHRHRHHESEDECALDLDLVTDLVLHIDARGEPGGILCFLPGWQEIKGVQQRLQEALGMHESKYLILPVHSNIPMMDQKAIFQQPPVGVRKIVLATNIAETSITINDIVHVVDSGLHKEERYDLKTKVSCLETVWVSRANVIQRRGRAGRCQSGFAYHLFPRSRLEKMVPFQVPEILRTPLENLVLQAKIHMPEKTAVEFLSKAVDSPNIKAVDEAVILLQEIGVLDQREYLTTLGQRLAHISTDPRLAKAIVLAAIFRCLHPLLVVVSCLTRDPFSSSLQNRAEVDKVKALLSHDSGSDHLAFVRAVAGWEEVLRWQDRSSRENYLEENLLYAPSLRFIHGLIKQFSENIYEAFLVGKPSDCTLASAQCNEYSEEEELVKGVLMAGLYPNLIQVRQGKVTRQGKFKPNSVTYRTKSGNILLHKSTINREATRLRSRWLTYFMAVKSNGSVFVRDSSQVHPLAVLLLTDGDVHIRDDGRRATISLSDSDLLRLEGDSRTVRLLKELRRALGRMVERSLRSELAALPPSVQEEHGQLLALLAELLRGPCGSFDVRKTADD
UniProt Q8IWX8: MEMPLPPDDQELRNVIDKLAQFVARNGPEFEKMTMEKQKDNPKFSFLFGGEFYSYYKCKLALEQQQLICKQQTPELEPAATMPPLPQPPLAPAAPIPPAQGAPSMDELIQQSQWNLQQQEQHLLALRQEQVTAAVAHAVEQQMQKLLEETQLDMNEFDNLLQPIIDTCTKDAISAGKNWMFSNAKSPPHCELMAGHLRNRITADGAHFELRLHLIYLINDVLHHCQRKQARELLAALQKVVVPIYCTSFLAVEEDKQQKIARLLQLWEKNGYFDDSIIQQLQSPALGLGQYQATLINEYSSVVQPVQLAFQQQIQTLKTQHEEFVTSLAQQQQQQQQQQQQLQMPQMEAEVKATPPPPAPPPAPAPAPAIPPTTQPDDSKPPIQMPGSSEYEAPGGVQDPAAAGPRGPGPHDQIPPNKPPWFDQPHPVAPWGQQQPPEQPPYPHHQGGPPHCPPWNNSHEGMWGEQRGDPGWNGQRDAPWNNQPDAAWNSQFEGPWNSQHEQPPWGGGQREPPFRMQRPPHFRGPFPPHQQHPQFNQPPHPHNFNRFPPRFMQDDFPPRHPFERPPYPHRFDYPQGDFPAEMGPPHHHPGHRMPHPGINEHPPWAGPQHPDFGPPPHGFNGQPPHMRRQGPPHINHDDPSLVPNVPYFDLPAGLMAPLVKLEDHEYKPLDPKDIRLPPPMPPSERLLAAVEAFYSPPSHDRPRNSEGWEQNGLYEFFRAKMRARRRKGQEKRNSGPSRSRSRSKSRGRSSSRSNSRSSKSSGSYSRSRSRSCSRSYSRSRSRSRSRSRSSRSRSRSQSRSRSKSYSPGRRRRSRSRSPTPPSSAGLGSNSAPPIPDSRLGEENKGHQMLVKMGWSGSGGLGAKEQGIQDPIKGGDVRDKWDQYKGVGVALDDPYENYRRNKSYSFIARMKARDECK
UniProt Q8IYD1, whole entry: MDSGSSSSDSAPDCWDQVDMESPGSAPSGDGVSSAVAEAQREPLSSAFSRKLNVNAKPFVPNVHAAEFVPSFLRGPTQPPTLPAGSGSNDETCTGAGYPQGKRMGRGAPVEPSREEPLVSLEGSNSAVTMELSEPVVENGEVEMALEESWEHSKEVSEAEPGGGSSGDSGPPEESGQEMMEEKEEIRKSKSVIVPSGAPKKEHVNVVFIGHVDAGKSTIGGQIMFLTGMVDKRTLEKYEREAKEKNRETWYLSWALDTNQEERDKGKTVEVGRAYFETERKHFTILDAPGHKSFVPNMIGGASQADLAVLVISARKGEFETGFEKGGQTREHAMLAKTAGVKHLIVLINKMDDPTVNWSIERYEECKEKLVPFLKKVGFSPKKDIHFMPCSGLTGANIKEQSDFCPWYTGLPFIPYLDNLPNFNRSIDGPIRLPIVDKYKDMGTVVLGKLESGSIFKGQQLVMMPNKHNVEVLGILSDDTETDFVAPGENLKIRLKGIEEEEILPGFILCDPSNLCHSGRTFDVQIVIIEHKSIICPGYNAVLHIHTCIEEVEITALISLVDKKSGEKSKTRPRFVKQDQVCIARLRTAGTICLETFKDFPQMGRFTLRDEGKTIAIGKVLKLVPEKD
UniProt Q86Y56: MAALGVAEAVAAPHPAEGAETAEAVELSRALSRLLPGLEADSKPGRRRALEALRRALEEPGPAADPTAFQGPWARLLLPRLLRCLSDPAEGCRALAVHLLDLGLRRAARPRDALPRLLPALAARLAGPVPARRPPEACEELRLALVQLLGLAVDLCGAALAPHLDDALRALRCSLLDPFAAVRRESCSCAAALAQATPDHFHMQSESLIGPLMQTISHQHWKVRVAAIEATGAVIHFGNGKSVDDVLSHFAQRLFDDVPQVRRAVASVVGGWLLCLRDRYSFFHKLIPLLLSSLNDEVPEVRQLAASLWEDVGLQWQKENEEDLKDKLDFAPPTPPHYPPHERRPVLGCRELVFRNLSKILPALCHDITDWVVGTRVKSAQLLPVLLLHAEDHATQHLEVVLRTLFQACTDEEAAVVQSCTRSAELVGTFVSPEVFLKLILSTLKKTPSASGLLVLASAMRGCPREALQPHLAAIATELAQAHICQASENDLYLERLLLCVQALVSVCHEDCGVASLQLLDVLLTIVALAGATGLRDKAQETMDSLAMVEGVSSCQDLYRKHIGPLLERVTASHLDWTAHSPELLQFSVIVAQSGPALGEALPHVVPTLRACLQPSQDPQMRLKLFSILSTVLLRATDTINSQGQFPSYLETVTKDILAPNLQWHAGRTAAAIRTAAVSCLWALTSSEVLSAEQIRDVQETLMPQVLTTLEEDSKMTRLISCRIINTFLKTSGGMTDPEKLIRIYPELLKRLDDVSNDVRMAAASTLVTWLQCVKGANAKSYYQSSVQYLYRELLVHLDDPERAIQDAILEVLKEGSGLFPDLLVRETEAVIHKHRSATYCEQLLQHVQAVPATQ
UniProt Q7Z7A3: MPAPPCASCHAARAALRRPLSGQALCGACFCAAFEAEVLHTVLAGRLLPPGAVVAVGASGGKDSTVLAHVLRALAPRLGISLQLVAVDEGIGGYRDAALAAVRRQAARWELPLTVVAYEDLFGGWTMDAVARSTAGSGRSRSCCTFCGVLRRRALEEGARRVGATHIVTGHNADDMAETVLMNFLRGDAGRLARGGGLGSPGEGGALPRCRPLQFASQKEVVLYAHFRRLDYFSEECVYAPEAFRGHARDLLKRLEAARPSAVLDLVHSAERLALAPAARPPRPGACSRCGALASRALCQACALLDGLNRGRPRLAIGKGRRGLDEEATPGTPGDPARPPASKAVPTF

compound: COC(=O)C#Cc1ccccc1 [methyl 3-phenylpropiolate]; test: log2 ratio of iodoacetamide-alkyne labeling of the cysteine site, DMSO over compound (competition); higher = stronger covalent engagement of the cysteine by the compound, active = 1 or more; conditions: 500 µM; treatment time 1 h; system: HEK293T cell lysate
How it was run: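 Electrophile (500 µM) or vehicle was added to HEK293T lysate (2 mg/mL) for 1 h at ambient temperature before iodoacetamide alkyne labelling (1 h) and click coupling to sCIP-TMT reagents. After pooling, overnight trypsin digestion at 37 °C, streptavidin enrichment and acid elution, peptides were measured by Orbitrap Eclipse LC-MS/MS with FAIMS and quantified in FragPipe. Each cysteine's log2 competition ratio compares mean control-channel with mean compound-channel reporter intensity, control over compound. Data came from duplicate channels across three replicates, excluding cysteines quantified in only one replicate.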

log2 ratio of iodoacetamide-alkyne labeling, inactive:
IRF2BP2 C505 (UniProt Q7Z5L9) 0.211
UniProt Q7Z5K2_C344 0.847
KTN1 C1105 (UniProt Q86UP2) 0.28
DHX30 C309 (UniProt Q7L2E3) 0.448
PBRM1 C50 (UniProt Q86U86) -0.144
CHERP C246 (UniProt Q8IWX8) 0.255
GSPT2 C93 (UniProt Q8IYD1) 0.616
UniProt Q7Z5K2_C293 0.472
ZC3HAV1 C219 (UniProt Q7Z2W4) 0.305
MEPCE C177 (UniProt Q7L2J0) 0.0621
UniProt Q86Y56_C173 0.779
UniProt Q7Z7A3_C287 -0.267
HUWE1 C612 (UniProt Q7Z6Z7) 0.202
FTSJ3 C197 (UniProt Q8IY81) 0.103

A run of entries of the results above, for reference:
log2 ratio of iodoacetamide-alkyne labeling, inactive:
IRF2BP2 C505 (UniProt Q7Z5L9) 0.211
UniProt Q7Z5K2_C344 0.847
KTN1 C1105 (UniProt Q86UP2) 0.28
